From patent publication US8906349B2, “Oral care composition” (priority 2009, dated 2014)

System: A. viscosus
Assay: Minimum inhibitory concentration, serial dilution in 96-well plate, 24 h
Type: cell-based
Settings: Actinomyces viscosus, read-out: MIC (A. viscosus)
Experimental: The minimum inhibitory concentration for actives was determined by incubating Actinomyces viscosus bacteria with serial dilutions of the active for 24 hours and determining the lowest concentration at which growth of this species was inhibited. Briefly, 100 μl final volume actives were serially diluted in 0.5× tryptic soy broth (TSB) across duplicate wells of a 96-well flat bottom microtiter plate. An overnight culture of bacteria was diluted to an OD610 ˜0.2 and 100 μl of this was added to each well. Plates were incubated overnight at 37° C. OD610 was read for each well and the MIC was determined as the concentration of active in the last well where bacterial growth was inhibited.

Structure (SMILES): CCCCCCCCCCCCCCCC[n+]1ccccc1 [CPC, cetyl pyridinium chloride]
- MIC: < 1 mg/L
